Two molecules from PMC11408250 can be followed below.

No constants are given. Whether binding was seen depends on the method and setting. In cells and extracts the contact can be indirect. Here binding means that the protein was enriched with, or labelled near, the bait; the list need not be complete. Sequences can lack the tags named with a protein.

Test [1] deals with T1, PCDH19-HA-FLAG (Protocadherin 19, endogenous in Pcdh19-HA-FLAG mice) (mouse (endogenous in mouse brain)) (UniProt Q80TF3).
T1 sequence: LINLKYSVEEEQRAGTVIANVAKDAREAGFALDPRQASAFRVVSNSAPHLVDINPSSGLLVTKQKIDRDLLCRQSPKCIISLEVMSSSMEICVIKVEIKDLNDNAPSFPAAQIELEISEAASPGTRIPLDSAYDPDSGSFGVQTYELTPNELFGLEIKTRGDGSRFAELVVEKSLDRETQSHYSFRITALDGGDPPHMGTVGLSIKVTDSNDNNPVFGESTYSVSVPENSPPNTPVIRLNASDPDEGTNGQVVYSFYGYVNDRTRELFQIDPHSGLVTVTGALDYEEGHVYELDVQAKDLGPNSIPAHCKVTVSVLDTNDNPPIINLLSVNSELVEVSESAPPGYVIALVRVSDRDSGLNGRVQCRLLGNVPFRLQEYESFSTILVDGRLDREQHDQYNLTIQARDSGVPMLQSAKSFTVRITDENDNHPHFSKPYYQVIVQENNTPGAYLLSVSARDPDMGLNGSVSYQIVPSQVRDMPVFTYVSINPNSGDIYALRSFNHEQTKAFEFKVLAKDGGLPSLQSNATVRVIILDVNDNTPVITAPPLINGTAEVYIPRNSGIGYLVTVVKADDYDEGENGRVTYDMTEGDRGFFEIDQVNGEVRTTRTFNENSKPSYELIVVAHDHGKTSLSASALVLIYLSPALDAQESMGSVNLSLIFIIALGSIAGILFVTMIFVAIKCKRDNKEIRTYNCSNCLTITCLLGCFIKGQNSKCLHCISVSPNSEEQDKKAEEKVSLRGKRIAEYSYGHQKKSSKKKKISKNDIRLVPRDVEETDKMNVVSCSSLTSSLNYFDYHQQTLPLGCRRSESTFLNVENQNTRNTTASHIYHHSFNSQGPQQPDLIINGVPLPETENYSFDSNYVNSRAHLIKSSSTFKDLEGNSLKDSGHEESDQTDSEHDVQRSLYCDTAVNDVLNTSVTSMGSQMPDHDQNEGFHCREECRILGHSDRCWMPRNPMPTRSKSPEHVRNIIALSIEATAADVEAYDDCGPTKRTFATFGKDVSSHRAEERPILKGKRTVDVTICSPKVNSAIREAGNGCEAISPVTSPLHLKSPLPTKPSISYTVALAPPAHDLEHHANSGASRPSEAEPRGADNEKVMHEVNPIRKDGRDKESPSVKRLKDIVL
The test is described as follows: affinity purification with mass spectrometry; Experiment 2, postnatal: PCDH19-HA-FLAG precipitated with anti-FLAG M2 affinity gel from P6-7 mouse cortex and hippocampus lysate, control mouse IgG affinity gel; IP Buffer, overnight 4 °C; LC-MS/MS.

The target of test [2] is T1, PCDH19-HA-FLAG (Protocadherin 19, endogenous in Pcdh19-HA-FLAG mice) (mouse (endogenous in mouse brain)). The test is described as follows: affinity purification with mass spectrometry; Experiment 2, embryonic: PCDH19-HA-FLAG precipitated with anti-FLAG M2 affinity gel from E17.5-18.5 mouse cortex and hippocampus lysate, control mouse IgG affinity gel; IP Buffer, overnight 4 °C; LC-MS/MS.

B1: Signal-Induced Proliferation-Associated 1 (protein, UniProt P46062 1-1037)
chain: MWAGGVGSPRRGMAPAPTDDLFARKLRQPARPPLTPNTFEPRPARGPLLRSGSDAGEVRPPTPASPRARAHSHEDASRPAATPTRLFTDPLALLGLPAEEPEPTFPPVLEPRWFAHYDVQSLLFDWAPRPRGTGSHTEANSGTLAEGQTTTSDLLLGAPGFVSELGGEGELGLGGPISPPVPPALPNAAVSVLEEPQTRTTTYSLEHADLGAGYYRKYFYGKEHQNFFGLDEALGPVAVSLRREEKEGSGGGTLHSYRVIVRTTQLRTLRGTISEDALPPGPPSVSPRKLLEHVAPRLSPTCLRLGSASPKVPRQLLTLDEQVLSFQRKGGILYCRAGQGSEEEMYNNQEAGAAFMQFLTLLGDVVRLKGFESYRAQLDTKTDSTGTHSLYTTYQDHEIMFHVSTMLPYTPNNQQQLLRKRHIGNDIVTIVFQEPGSKPFCPTTIRSHFQHVFLVVRAHAPCTPHTSYRVAVSRTQDTPAFGPALPEGGGPFAANADFRAFLLAKALNGEQAAGHARQFHAMATRTRQQYLQDLATNEVTTTSLDSASRFGLPSLGGRRRATPRSPGADVQAAGALMWGVRAAPGARVAAGAETSGPDDAEVPCLLGISAETLVLVAPRDGRVVFNCACRDVLAWTFSEHQLDLYHGRGEAITLRLDGAPGQAVGEVVARLQLVSRGCETRELALPRDGQGRLGFEVDAEGFITHVERFTFAETTGLRPGARLLRVCGQTLPKLGPETAAQMLRSAPKVCVTVLPPDESGRPRRSFSELYMLSLKEPSRRGGPEPVQDETGKLVILPPTKQLLHFCLKDSSSPPGPGDLTEERTEFLRTHNSLSSGSSLSDEAPVLPNTTPDLLLVTTANPSAPGTDRETPPSQDQSGSPSSHEDTSDSGPELRASILPRTLSLRNSISKIMSEAGSETLEDEWQSISEIASTCNTILESLSREGQPISESGDPKEALKCDSEPEPGSLSEKVSHLESMLWKLQEDLQREKADRAALEEEVRSLRHNNQRLLAESESAATRLLLASKHLGAPTTDLA
On to B1, for which the binding entry in test [1] is given as “binds”.

B2: Drebrin 1 (protein, UniProt Q9QXS6 1-706)
chain: MAGVSFSGHRLELLAAYEEVIREESAADWALYTYEDGSDDLKLAASGEGGLQELSGHFENQKVMYGFCSVKDSQAALPKYVLINWVGEDVPDARKCACASHVAKVAEFFQGVDVIVNASSVEDIDAGAIGQRLSNGLARLSSPVLHRLRLREDENAEPVGTTYQKTDAAVEMKRINREQFWEQAKKEEELRKEEERKKALDARLRFEQERMEQERQEQEERERRYREREQQIEEHRRKQQSLEAEEAKRRLKEQSIFGDQRDEEEESQMKKSESEVEEAAAIIAQRPDNPREFFRQQERVASASGGSCDAPAPAPFNHRPGRPYCPFIKASDSGPSSSSSSSSSPPRTPFPYITCHRTPNLSSSLPCSHLDSHRRMAPTPIPTRSPSDSSTASTPIAEQIERALDEVTSSQPPPPPPPPPPTQEAQETTPSLDEELSKEAKVTAAPEVWAGCAAEPPQAQEPPLLQSSPLEDSMCTESPEQAALAAPAEPAASVTSVADVHAADTIETTTATTDTTIANNVTPAAASLIDLWPGNGEEASTLQAEPRVPTPPSGAEASLAEVPLLNEAAQEPLPPVGEGCANLLNFDELPEPPATFCDPEEEVGETLAASQVLTMPSALEEVDQVLEQELEPEPHLLTNGETTQKEGTQASEGYFSQSQEEEFAQSEEPCAKVPPPVFYNKPPEIDITCWDADPVPEEEEGFEGGD
On to B2, for which, in test [2], the binding entry is recorded as “binds”.
